Here are results for one substance from PMC11004410.

Protein sequences, listed by entry. Tags and fused reporters are not part of them. Lines headed by an entry give the natural chain unless they say otherwise; changes in a name come on top.
UniProt P02647: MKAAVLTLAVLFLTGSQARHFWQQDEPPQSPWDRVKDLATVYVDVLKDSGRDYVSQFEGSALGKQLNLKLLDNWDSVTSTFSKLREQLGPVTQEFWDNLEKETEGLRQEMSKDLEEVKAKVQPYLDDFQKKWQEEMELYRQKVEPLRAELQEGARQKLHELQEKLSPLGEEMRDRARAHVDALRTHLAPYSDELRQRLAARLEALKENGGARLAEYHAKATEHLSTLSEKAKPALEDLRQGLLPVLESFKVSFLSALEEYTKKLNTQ

The assay addresses T1, GFP-SR-B1 (fusion protein) (UniProt Q8WTV0).
T1 sequence: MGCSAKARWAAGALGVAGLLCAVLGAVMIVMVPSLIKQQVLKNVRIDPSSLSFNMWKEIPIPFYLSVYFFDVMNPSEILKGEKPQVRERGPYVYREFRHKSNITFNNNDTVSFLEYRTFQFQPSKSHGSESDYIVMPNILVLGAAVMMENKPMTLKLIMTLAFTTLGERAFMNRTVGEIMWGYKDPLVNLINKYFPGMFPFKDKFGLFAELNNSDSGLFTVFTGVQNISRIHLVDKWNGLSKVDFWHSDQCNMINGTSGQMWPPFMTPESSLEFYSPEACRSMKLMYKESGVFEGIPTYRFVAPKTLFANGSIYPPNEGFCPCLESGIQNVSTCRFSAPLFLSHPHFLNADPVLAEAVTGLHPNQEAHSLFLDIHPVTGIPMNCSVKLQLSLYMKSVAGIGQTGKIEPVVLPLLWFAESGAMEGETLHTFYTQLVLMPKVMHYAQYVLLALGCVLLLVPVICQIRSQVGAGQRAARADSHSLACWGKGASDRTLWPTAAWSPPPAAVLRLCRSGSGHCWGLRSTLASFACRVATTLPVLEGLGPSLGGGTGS
As to the kind of experiment: pull-down; GFP-SR-B1 or GFP alone from HeLa lysate immobilised on GFP nanotrap beads overnight at 4°C, washed 3x with lysis buffer; APOA1 variant protein (10 or 20 μg) added in PBS, 1 ml, 4°C, 3 h; washed 3x-4x with high salt (1.5 M) PBS; Western blot with anti-APOA1 and anti-GFP; bands normalised to immobilised SR-B1-GFP and to input; both purified. Background: In western blotting, separated proteins are transferred to a membrane and probed.

Results are given in words; binding and its absence hold for the method and conditions named. In cells and extracts the contact can be indirect. Binding can be weak; no strength is given. Tags and fused reporters may be left off the sequences shown.

For the substance “recombinant wild-type apolipoprotein A1 (APOA1-WT), from ClearColi (from UniProt P02647)”, the binding result is “binds”.
